Measurements reported in article PMC11674800, “Second-Generation Antipsychotics Induce Metabolic Disruption in Adipose Tissue-Derived Mesenchymal Stem Cells Through an aPKC-Dependent Pathway” (Cells, 2024).
pIC50: −log10 of the molar value. Like-named read-outs stand apart in the source and are kept apart here.

Test system: ADSCs
Test: cells
Settings: Homo sapiens, 72 h
[1] = read-out: IC50 (viability), ADSC#1, Figure 1a inset
[2] = read-out: IC50 (viability), ADSC#2, Figure 1a inset
[3] = read-out: IC50 (viability), ADSC#3, Figure 1a inset
[4] = read-out: IC50 (viability), ADSC#4, Figure 1a inset
[5] = read-out: IC50 (viability), ADSC#5, Figure 1a inset

SMILES | pIC50 (read-out: IC50 (cell viability), 72 h, most sensitive cell line) | pIC50 [1] | pIC50 [2] | pIC50 [3] | pIC50 [4] | pIC50 [5] | pIC50 (read-out: concentration reducing cell viability by 50%, 72 h, all tested cell lines)
CN1CCN(C2=Nc3cc(Cl)ccc3Nc3ccccc32)CC1 [clozapine] | 4.42 | 4.17 | 4.00 | 4.42 | 4.20 | 4.38 | –
Cc1cc2c(s1)Nc1ccccc1N=C2N1CCN(C)CC1 [olanzapine] | – | 3.77 | 3.72 | 3.93 | < 3.80 | 4.01 | < 4.02
